Experimental findings from patent publication US6866833B1, “Substituted thiourea complexing agent and a method for extracting a noble metal from a matrix using the complexing agent” (University College Cork, priority 1999, dated 2005) are described below.

Data set [1] in a line: Supercritical fluid extraction of Au(III) as AuCl4^− from filter paper, gold determined by atomic absorption spectroscopy. The note with it: for gold extraction: 450 atmospheres. The method, then:
Gold Au(III) extraction by the ligand of the comparative Example (a) was investigated employing a BDH Gold (III) standard containing 1000 ppm Au(III) (aqueous AuCl4^−). Thus 60 μl of solution Au(III) containing 3.05×10^−7 moles Au(III) was applied to a 3 cm diameter filter paper. The filter paper was allowed to dry and then placed in a glass tube (2 cm×0.5 cm i.d.), plugged with glass wool at both ends. 20 mg of ligand of the comparative Example (a) (in excess of over 200 fold over Au(III) level) was then placed in the same glass tube and plugged with glass wool.
The extraction vessel was statically extracted for 20 minutes and then dynamically extracted into a collecting solvent of 4 ml methanol for 15 minutes (0.8 ml CO2/minute flow rate). The methanol solution was then made up to 10 ml using additional methanol. Levels of gold in solution were then determined by atomic absorption spectroscopy. The procedure was carried out at different pressures from 200-400 atm. The following extraction percentages were obtained:
The procedure in Example 5(a) was repeated except the temperature of the extraction procedure was varied from 60-120° C., while maintaining the pressure of the extractor at 400 atm. The following results were obtained:
The procedure in Example 6 was repeated with the ligand from Example 1 being used in place of the ligand of the Comparative Example (a). The following % extraction values were obtained at differing pressures for extraction of Au(III):
The procedure of Example 7 was repeated employing the ligand of Example 2 in place of the ligand of Example 1 and utilising 50 μl Au(III) standard solution in place of 60 μl to give the following % extraction results at differing pressures of SF—CO2 at 60° C.

Data set [2] is described as follows: Supercritical fluid extraction of elemental gold Au(O), without oxidant.
A short description of data set [3]: Supercritical fluid extraction of Au(O) first oxidised to Au(I) by spiking with Fe(III). As to conditions: 11.2 mg Au(O) + 60 μl Fe(III) (1000 ppm) + 20 mg ligand.
Setting [4] is: 60° C., 250 atm SF—CO2, 60 μl 1000 ppm Au(III), 20 mg ligand.
The mark [5] stands for this setting: 60° C., 60 μl 1000 ppm Au(III), 20 mg ligand.
Where [6] appears, read: 11.2 mg solid Au(O) + 20 mg ligand, no Fe(III).
Setting [7] is: 60 μl Au(O) suspension on filter paper, 200 atm SF—CO2.
Where [8] appears, read: 60 μl Au(O) suspension on filter paper, 250 atm SF—CO2.
Where [9] appears, read: 60 μl Au(O) suspension on filter paper, 300 atm SF—CO2.
Setting [10] is: 60 μl Au(O) suspension on filter paper, 350 atm SF—CO2.
The mark [11] stands for this setting: 60 μl Au(O) suspension on filter paper, 400 atm SF—CO2.

The structures appear in SMILES notation. “And” between values parts separate entries of the source, which are not always exact repeats. Identical values can stand only once.

On to `NC(=S)Nc1cc(C(F)(F)F)cc(C(F)(F)F)c1` [Comparative Example (a)], for which the Extraction is recorded as 0% in data set [1] (60° C., 200 atm SF—CO2, 60 μl 1000 ppm Au(III), 20 mg ligand); 0% in data set [1] (setting [4]); “˜0.0%” in data set [1] (60° C., 300 atm SF—CO2, 60 μl 1000 ppm Au(III), 20 mg ligand); 0% in data set [1] (60° C., 350 atm SF—CO2, 60 μl 1000 ppm Au(III), 20 mg ligand); 6.7% in data set [1] (60° C., 400 atm SF—CO2, 60 μl 1000 ppm Au(III), 20 mg ligand); 8.8% in data set [1] (400 atm, 60° C. (temperature series)). Besides, the Extraction in data set [1] (400 atm, 80° C.) was 0.7%; in data set [1] (400 atm, 100° C.) it was 2.0%; in data set [1] (400 atm, 120° C.), 1.6%.
In data set [1] (setting [4]), `CCCCCCCCNC(=S)NC` [Comparative Example (b), N-methyl,N′-octyl thiourea] displayed an Extraction of 3.2%. Moreover, in data set [1] (setting [5]), the gold extraction is recorded as 2.0%.
`CCCCCCCCCCCCNC(=S)NC` [Comparative Example (c), N-methyl, N′-dodecyl thiourea] gave an Extraction in data set [1] (setting [4]) of 2.6%. In data set [1] (setting [5]), the gold extraction came out at 1.3%.
Regarding `FC(F)(F)c1cc(NC(=S)NCC(F)(F)C(F)(F)C(F)(F)F)cc(C(F)(F)F)c1` [Example 1], the Extraction turned out to be 61.2% in data set [1] (Example 7: 200 atm SF—CO2, Au(III), 20 mg ligand); 92.7% in data set [1] (Example 7: 250 atm SF—CO2, Au(III), 20 mg ligand); 83.7% in data set [1] (Example 7: 300 atm SF—CO2, Au(III), 20 mg ligand); 75.3% in data set [1] (Example 7: 350 atm SF—CO2, Au(III), 20 mg ligand); 78.1% in data set [1] (Example 7: 400 atm SF—CO2, Au(III), 20 mg ligand); 0% in data set [2] (setting [6]). Also, the Extraction entry was “˜0.0%” in data set [2] (setting [7]); “˜0.0%” in data set [2] (setting [8]); “˜0.0%” in data set [2] (setting [9]); “˜0.0%” in data set [2] (setting [10]); “˜0.0%” in data set [2] (setting [11]); 20.0% in data set [3] (relative to gold oxidisable by Fe(III) (limiting reagent)). Moreover, the “Atomic Absorption” value in data set [2] (setting [6]) was found to be 0.001 A.U; in data set [2] (setting [7]), 0.001 A.U; in data set [2] (setting [8]), 0.002 A.U; in data set [2] (setting [9]), 0.0001 A.U; in data set [2] (setting [10]) it was 0.002 A.U; in data set [2] (setting [11]), 0.002 A.U. Further, in data set [3] (212 μl 1000 ppm Au standard 1.263 = 100%), the “Atomic Absorption” value is 0.252 A.U. and 0.253 A.U. For the same compound, the “Extraction of Au(O) (in words)” value in data set [2] (Au(O) on filter paper, no oxidant) is recorded as “did not extract Au(O)”.
